Experimental data: the supplement of paper PMC10849652
Some of the results follow.

Amino acid sequences for entries named in this document (tags omitted). A change or cut given only in a name is not applied to a line headed by its entry.
UniProt Q6P4Q7: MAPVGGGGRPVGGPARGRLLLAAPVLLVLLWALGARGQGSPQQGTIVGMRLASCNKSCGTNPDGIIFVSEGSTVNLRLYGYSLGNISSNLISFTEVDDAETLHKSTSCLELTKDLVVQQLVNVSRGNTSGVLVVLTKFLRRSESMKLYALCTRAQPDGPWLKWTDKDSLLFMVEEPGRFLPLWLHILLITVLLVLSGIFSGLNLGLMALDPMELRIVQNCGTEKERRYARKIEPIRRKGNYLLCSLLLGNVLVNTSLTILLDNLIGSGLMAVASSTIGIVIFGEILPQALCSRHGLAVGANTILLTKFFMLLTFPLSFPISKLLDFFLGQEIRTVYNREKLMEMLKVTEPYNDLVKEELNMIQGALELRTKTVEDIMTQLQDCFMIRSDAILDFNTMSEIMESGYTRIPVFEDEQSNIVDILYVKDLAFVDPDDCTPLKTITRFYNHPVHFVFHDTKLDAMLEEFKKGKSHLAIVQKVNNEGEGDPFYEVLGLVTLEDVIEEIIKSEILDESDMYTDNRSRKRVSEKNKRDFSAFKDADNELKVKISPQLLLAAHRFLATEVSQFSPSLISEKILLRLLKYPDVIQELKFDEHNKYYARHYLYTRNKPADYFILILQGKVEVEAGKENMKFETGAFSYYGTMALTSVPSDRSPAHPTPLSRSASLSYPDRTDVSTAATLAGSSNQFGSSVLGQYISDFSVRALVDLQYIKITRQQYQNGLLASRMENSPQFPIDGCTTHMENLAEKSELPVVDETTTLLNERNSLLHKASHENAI
UniProt Q9H9E3: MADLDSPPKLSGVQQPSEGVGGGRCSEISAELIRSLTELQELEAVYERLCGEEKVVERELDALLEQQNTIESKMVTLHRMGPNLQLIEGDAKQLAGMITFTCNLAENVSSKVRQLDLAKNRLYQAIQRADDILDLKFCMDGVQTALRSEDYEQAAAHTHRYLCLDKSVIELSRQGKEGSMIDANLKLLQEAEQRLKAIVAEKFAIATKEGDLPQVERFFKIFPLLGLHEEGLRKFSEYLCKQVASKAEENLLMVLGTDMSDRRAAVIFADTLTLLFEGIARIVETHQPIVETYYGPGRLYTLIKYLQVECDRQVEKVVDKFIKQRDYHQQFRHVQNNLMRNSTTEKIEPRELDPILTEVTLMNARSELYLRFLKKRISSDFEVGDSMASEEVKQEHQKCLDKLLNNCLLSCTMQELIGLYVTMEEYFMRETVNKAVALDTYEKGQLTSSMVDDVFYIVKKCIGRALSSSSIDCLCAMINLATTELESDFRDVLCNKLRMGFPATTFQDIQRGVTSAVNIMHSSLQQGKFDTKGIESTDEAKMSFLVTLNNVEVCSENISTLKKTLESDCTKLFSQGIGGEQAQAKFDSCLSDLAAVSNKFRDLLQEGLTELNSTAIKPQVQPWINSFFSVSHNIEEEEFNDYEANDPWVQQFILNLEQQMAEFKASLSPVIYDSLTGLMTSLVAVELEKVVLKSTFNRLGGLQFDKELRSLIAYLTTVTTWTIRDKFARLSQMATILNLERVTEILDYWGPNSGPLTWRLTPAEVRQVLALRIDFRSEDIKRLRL
UniProt P54105: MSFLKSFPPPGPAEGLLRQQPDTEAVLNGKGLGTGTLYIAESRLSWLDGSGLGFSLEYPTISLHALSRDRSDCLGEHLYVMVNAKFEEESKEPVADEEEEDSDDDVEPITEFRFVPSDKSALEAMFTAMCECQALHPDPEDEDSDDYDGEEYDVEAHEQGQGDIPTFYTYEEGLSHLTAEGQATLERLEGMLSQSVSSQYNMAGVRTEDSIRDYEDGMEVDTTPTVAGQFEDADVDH
UniProt Q96FZ7: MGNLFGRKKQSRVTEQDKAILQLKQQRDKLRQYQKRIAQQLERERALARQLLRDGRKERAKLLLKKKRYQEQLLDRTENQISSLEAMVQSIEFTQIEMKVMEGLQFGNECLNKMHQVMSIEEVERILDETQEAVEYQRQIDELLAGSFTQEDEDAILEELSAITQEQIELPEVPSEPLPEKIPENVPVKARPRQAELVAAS
UniProt Q9BQ75: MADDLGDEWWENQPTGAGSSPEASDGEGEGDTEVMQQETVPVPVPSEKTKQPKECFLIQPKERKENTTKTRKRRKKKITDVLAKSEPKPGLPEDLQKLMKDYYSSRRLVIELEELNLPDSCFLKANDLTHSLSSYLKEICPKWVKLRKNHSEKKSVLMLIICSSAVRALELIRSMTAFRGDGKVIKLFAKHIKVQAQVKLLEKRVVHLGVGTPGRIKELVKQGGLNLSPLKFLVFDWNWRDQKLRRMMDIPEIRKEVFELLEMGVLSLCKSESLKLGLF
UniProt Q7Z7K0: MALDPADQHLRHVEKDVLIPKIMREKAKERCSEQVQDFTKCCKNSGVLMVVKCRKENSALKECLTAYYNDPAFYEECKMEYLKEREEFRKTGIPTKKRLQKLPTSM
UniProt P51797: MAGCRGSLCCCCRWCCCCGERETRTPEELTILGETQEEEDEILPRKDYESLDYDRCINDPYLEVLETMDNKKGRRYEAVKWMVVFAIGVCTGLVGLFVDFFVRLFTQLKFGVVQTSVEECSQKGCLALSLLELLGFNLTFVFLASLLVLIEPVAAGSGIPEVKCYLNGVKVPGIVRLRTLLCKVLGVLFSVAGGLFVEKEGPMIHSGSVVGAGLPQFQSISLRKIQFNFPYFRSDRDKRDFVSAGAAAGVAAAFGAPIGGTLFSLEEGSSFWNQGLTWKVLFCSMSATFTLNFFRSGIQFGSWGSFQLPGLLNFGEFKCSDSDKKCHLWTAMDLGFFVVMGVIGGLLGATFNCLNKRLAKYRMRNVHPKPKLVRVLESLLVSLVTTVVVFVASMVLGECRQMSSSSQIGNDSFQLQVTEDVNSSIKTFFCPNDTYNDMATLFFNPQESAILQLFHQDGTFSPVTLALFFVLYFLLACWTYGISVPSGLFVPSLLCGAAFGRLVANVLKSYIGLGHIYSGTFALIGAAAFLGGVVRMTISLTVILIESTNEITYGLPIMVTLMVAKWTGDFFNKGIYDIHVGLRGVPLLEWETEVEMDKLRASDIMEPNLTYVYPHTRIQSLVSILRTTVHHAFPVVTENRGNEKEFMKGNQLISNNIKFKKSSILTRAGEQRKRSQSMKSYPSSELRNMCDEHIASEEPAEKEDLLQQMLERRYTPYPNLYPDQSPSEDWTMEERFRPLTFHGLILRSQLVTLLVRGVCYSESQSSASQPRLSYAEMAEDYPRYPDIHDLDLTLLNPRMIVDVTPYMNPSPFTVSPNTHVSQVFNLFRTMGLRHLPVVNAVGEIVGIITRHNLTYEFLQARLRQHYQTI
UniProt P51788: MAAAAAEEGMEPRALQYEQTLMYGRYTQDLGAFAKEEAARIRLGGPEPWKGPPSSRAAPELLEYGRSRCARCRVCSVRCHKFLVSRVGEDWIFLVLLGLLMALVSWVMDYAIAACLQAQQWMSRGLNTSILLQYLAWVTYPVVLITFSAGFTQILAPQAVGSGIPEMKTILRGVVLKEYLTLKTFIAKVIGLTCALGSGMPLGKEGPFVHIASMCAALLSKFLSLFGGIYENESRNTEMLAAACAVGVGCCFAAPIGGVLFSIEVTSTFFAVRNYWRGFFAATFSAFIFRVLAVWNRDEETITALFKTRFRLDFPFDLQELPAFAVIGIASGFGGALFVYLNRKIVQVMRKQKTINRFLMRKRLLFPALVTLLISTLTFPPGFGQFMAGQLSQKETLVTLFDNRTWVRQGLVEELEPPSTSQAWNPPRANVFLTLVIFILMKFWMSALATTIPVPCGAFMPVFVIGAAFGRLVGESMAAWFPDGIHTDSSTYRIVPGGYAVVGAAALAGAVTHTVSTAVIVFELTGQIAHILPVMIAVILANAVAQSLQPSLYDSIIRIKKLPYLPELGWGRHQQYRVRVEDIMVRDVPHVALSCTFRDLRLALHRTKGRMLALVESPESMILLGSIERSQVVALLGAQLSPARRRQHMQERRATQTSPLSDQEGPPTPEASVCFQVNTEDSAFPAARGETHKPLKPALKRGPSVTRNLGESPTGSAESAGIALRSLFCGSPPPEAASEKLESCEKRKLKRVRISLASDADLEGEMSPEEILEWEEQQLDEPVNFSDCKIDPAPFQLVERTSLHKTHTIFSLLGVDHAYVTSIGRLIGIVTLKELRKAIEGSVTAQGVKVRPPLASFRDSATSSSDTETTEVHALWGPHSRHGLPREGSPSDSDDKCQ
UniProt Q7Z460: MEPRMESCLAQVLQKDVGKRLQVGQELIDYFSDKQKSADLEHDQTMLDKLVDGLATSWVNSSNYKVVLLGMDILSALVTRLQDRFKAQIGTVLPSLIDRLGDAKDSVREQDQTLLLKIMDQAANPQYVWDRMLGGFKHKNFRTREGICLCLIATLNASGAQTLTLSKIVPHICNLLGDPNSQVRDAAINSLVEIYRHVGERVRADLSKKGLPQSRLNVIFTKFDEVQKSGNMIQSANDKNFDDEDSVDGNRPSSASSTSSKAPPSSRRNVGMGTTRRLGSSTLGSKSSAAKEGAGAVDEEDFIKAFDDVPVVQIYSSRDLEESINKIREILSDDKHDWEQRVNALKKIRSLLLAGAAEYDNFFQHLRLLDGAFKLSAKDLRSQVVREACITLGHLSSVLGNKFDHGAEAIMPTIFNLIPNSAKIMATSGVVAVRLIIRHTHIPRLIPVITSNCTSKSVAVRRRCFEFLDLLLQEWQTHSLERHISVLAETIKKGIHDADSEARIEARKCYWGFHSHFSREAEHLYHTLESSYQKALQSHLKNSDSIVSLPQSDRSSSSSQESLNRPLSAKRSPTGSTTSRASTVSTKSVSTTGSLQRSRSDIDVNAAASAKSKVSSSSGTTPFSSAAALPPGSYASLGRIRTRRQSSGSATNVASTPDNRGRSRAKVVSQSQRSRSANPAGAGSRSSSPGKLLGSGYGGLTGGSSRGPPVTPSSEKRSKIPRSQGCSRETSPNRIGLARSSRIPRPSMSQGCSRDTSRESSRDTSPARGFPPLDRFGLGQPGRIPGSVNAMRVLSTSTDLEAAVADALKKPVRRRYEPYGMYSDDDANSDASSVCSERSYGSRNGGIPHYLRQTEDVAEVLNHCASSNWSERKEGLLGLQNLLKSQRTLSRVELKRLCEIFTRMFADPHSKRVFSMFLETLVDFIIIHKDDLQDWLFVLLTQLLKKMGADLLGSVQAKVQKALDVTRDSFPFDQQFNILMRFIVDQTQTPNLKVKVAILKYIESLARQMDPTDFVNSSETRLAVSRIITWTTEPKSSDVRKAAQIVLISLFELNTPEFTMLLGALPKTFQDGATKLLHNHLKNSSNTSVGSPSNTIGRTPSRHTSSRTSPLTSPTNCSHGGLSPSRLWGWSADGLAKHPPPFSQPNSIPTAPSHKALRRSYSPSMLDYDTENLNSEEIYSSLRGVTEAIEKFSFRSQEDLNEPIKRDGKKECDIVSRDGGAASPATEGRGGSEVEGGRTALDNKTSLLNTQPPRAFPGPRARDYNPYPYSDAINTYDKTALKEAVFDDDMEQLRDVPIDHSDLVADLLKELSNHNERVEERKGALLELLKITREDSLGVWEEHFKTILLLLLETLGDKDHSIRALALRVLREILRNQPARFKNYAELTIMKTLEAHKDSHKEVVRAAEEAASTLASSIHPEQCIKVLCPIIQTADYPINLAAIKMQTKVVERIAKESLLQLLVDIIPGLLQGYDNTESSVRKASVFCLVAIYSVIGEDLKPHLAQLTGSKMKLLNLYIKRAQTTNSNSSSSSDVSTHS
UniProt Q8N5K1: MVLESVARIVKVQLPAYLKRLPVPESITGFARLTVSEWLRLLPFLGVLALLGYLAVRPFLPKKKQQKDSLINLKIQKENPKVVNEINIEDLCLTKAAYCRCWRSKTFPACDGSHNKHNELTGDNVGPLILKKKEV
UniProt Q9GZY4: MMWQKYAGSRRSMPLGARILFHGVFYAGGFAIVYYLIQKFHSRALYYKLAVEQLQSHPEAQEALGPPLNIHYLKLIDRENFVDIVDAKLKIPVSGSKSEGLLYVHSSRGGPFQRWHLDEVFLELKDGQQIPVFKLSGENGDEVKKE
UniProt Q9NRB3: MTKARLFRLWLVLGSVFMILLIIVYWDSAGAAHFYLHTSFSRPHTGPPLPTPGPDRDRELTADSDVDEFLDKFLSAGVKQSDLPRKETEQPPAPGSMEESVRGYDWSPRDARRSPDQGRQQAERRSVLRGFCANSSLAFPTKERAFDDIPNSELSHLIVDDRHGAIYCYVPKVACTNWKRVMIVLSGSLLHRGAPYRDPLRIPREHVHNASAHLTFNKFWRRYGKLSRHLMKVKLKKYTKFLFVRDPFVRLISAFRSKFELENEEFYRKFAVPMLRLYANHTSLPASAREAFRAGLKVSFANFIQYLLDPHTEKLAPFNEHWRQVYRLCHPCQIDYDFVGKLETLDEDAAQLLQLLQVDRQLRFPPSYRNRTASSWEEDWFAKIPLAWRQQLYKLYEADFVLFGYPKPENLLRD
UniProt Q9BW66: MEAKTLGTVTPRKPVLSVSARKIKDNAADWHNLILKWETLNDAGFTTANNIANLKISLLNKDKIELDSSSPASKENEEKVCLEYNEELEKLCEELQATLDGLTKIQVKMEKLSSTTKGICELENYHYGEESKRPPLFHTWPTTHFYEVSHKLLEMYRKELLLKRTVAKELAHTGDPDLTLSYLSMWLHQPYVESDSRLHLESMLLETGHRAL

What was measured:
Assay in all cases: log2 fold change, soluble protein after heating vs DMSO (PISA); higher = thermal stabilisation; K562 cells, 10 uM, 30 min; active = over 0.2 and 3.5 SD of the protein, either way, in both replicates (recomputed)
[1] = compound: CS(=O)(=O)c1ccc(-c2cnc(N)c(C(=O)Nc3ccccc3)n2)cc1
Method in brief: (§1)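 K562 cells at 2×10^6 cells/mL were exposed to 10 μM compound for 30 min, then aliquots were heated for 3 min across 48°C-58°C, pooled, and extracted in PBS containing 0.5% NP-40 at 4°C. The supernatant after 21,000xg for 90 min was taken as soluble protein and measured by TMTpro 16plex LC-MS/MS with channel sums equalised. Thermal stability is reported relative to control samples, with values from duplicates. Fold changes are given on a log2 scale.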

[2] = compound: C[C@@H](Oc1cc(-c2cnn(C3CCNCC3)c2)cnc1N)c1c(Cl)ccc(F)c1Cl [crizotinib]
Method in brief: as §1

[3] = compound: C[C@@H]1COCCN1C2=NC(=NC(=C2)C3(CC3)S(=O)(=O)C)C4=C5C=CNC5=CC=C4
Method in brief: as §1

[4] = compound: C[C@H](C1=CC=C(C=C1)C(=O)NC2=C3C=CNC3=NC=C2)N
Method in brief: as §1

[5] = compound: C[C@H](Nc1ncnc2nc[nH]c12)c1cc2cccc(Cl)c2c(=O)n1-c1ccccc1 [duvelisib]
Method in brief: as §1

[6] = compound: Cc1cc(Nc2cc(CN3CCOCC3)c3nc(C)c(Cc4ccc(Cl)cc4F)n3n2)n[nH]1 [gandotinib]
Method in brief: as §1

[7] = compound: Cc1cc(Nc2cc(N3CCN(C)CC3)nc(Sc3ccc(NC(=O)C4CC4)cc3)n2)n[nH]1 [tozasertib]
Method in brief: as §1

[8] = compound: Cc1cc(SCc2sc(-c3ccc(C(F)(F)F)cc3)nc2C)ccc1OCC(=O)O
Method in brief: as §1

[9] = compound: Cc1ccc(-n2nc(C(C)(C)C)cc2NC(=O)Nc2ccc(OCCN3CCOCC3)c3ccccc23)cc1 [doramapimod]
Method in brief: as §1

[10] = compound: Cc1ccc(C(=O)N(CCCN)[C@@H](c2nc3cc(Cl)ccc3c(=O)n2Cc2ccccc2)C(C)C)cc1 [ispinesib]
Method in brief: as §1

[11] = compound: Cc1ccc(NC(=O)c2ccc(CN3CC[C@H](N(C)C)C3)c(C(F)(F)F)c2)cc1Nc1nccc(-c2cncnc2)n1 [bafetinib]
Method in brief: as §1

[12] = compound: Cc1cccc(CC(=O)N2CCc3c2ccc(-c2cn(C)c4ncnc(N)c24)c3F)n1
Method in brief: as §1

[13] = compound: Cc1cn(-c2cc(NC(=O)c3ccc(C)c(Nc4nccc(-c5cccnc5)n4)c3)cc(C(F)(F)F)c2)cn1 [nilotinib]
Method in brief: as §1

[14] = compound: Cc1nc(Nc2n[nH]c3c2CN(C(=O)N[C@H](CN(C)C)c2ccccc2)C3(C)C)c2sccc2n1
Method in brief: as §1

[15] = compound: Cc1nc(Nc2ncc(C(=O)Nc3c(C)cccc3Cl)s2)cc(N2CCN(CCO)CC2)n1 [dasatinib]
Method in brief: as §1

[16] = compound: Cc1ncc(-c2ccnc(Nc3ccc(S(C)(=O)=O)cc3)n2)n1C(C)C
Method in brief: as §1

[17] = compound: Cn1cc(-c2ccc3c(c2)CCN3C(=O)Cc2cccc(C(F)(F)F)c2)c2c(N)ncnc21
Method in brief: as §1

[18] = compound: Cn1cc(-c2ccc3nnc(C(F)(F)c4ccc5ncccc5c4)n3n2)cn1
Method in brief: as §1

[19] = compound: Cn1cncc1[C@@](N)(c1ccc(Cl)cc1)c1ccc2c(c1)c(-c1cccc(Cl)c1)cc(=O)n2C [tipifarnib]
Method in brief: as §1

[20] = compound: FC(F)(F)c1ccc(/C=C/c2nc(COc3ccc(CCCCn4ccnn4)cc3)co2)cc1 [mubritinib]
Method in brief: as §1

Measured: log2 fold change

CNNM4 (UniProt Q6P4Q7)
inactive: [1] 0.026 | [2] -0.066 | [3] 0.05 | [4] 0.028 | [5] 0.049 | [6] -0.032 | [7] -0.028 | [8] 0.314 | [9] -0.039 | [10] 0.196 | [11] 0 | [12] -0.025 | [13] 0.045 | [14] -0.026 | [15] -0.15 | [16] 0.06 | [17] -0.08 | [18] -0.078 | [19] -0.063 | [20] -0.06

COG4 (UniProt Q9H9E3)
inactive: [1] -0.172 | [2] -0.143 | [3] -0.212 | [4] 0.215 | [5] 0.003 | [6] 0.052 | [7] 0.185 | [8] 0.145 | [9] 0.149 | [10] -0.073 | [12] 0.114 | [13] 0.157 | [14] 0.029 | [15] 0.017 | [16] 0.141 | [17] 0.028 | [18] -0.079

CLUH, A0A494C0R8
active: [2] -0.575 | [5] 0.646 | [18] 0.532
inactive: [1] 0.055 | [3] 0.205 | [4] 0.037 | [6] -0.214 | [8] -0.031 | [9] 0.113 | [10] -0.028 | [11] 0.016 | [12] -0.445 | [13] 0.264 | [14] 0.015 | [15] -0.051 | [16] 0 | [17] -0.018 | [19] 0.145 | [20] 0.072

CLNS1A (UniProt P54105)
inactive: [1] 0.012 | [2] 0.053 | [3] 0.021 | [4] -0.051 | [5] 0.008 | [6] 0.018 | [7] 0.046 | [8] 0.064 | [9] -0.006 | [10] 0.066 | [11] -0.015 | [12] -0.043 | [13] -0.001 | [14] -0.002 | [15] -0.058 | [16] -0.045 | [17] 0.08 | [18] 0.022 | [19] -0.02 | [20] 0.024

CHMP6 (UniProt Q96FZ7)
inactive: [1] 0.047 | [2] 0.13 | [3] 0.016 | [4] -0.038 | [5] 0.116 | [6] 0.02 | [7] -0.002 | [8] 0.04 | [9] -0.043 | [10] 0.117 | [11] -0.044 | [12] 0.004 | [13] -0.025 | [14] -0.024 | [15] -0.057 | [16] -0.019 | [17] 0.048 | [18] 0.011 | [19] 0.014 | [20] 0.017

CMSS1 (UniProt Q9BQ75)
inactive: [1] -0.076 | [2] -0.06 | [3] 0.017 | [4] 0.181 | [5] -0.069 | [6] -0.069 | [7] 0.11 | [8] -0.012 | [9] 0.038 | [10] -0.057 | [11] 0.116 | [12] -0.007 | [13] -0.088 | [14] -0.007 | [15] -0.015 | [16] 0.205 | [17] -0.113 | [18] -0.041 | [19] -0.02 | [20] 0.01

CIAO1 (UniProt O76071)
inactive: [1] 0.01 | [2] 0.002 | [3] 0.104 | [4] -0.02 | [5] 0.086 | [6] 0.001 | [7] -0.039 | [8] 0.057 | [9] -0.02 | [10] -0.059 | [11] -0.078 | [12] -0.038 | [13] -0.007 | [14] -0.029 | [15] -0.043 | [16] -0.009 | [17] 0.036 | [18] 0.001 | [19] 0.103 | [20] 0.069

CMC1 (UniProt Q7Z7K0)
inactive: [1] 0.015 | [2] 0.045 | [3] -0.066 | [4] -0.057 | [5] -0.097 | [6] 0.06 | [7] -0.045 | [8] -0.17 | [9] -0.073 | [10] 0.036 | [11] -0.149 | [12] 0.013 | [13] 0.109 | [14] -0.2 | [15] 0.045 | [16] 0.068 | [17] -0.055 | [18] 0.065 | [19] 0.186 | [20] 0.101

CLCN6 isoform 5 (UniProt P51797)
inactive: [1] -0.093 | [2] -0.372 | [3] -0.017 | [4] 0.17 | [5] 0.107 | [6] 0.061 | [8] 0.09 | [9] 0.052 | [10] -0.457 | [11] -0.069 | [12] 0.113 | [13] 0.015 | [14] 0.129 | [15] 0.088 | [16] 0.123 | [17] 0.014 | [18] 0.005 | [19] 0.069 | [20] -0.131

Two consecutive records from above:
CIAO1 (UniProt O76071)
inactive: [1] 0.01 | [2] 0.002 | [3] 0.104 | [4] -0.02 | [5] 0.086 | [6] 0.001 | [7] -0.039 | [8] 0.057 | [9] -0.02 | [10] -0.059 | [11] -0.078 | [12] -0.038 | [13] -0.007 | [14] -0.029 | [15] -0.043 | [16] -0.009 | [17] 0.036 | [18] 0.001 | [19] 0.103 | [20] 0.069

CMC1 (UniProt Q7Z7K0)
inactive: [1] 0.015 | [2] 0.045 | [3] -0.066 | [4] -0.057 | [5] -0.097 | [6] 0.06 | [7] -0.045 | [8] -0.17 | [9] -0.073 | [10] 0.036 | [11] -0.149 | [12] 0.013 | [13] 0.109 | [14] -0.2 | [15] 0.045 | [16] 0.068 | [17] -0.055 | [18] 0.065 | [19] 0.186 | [20] 0.101

Next part.

CNOT6L (UniProt Q96LI5)
inactive: [1] 0.024 | [2] -0.013 | [3] 0.037 | [4] 0.016 | [5] 0.021 | [6] 0.019 | [7] -0.062 | [8] 0.05 | [9] -0.007 | [10] -0.019 | [11] 0.068 | [12] 0.03 | [13] -0.036 | [14] 0.003 | [15] -0.12 | [16] -0.069 | [17] -0.008 | [18] 0.044 | [19] 0.349 | [20] 0.055

CLCN2 (UniProt P51788)
inactive: [1] 0.012 | [2] 0.009 | [3] 0.018 | [4] -0.039 | [5] 0.058 | [6] 0.086 | [8] -0.102 | [9] 0.059 | [10] -0.086 | [11] -0.035 | [12] 0.085 | [13] 0.108 | [14] -0.007 | [15] 0.082 | [16] -0.123 | [17] -0.055 | [18] 0.005 | [19] -0.046 | [20] 0.067

CLASP1 (UniProt Q7Z460)
inactive: [1] -0.034 | [2] -0.294 | [3] 0.1 | [4] 0.153 | [5] -0.03 | [6] -0.261 | [7] -0.064 | [8] 0.071 | [9] 0.007 | [10] -0.117 | [11] 0.028 | [12] 0.083 | [13] -0.084 | [14] -0.122 | [15] -0.244 | [16] -0.054 | [17] 0.02 | [18] -0.01 | [19] -0.078 | [20] 0

CISD2 (UniProt Q8N5K1)
inactive: [1] -0.008 | [2] 0.065 | [3] -0.001 | [4] -0.079 | [5] 0.012 | [6] 0.031 | [7] -0.007 | [8] -0.031 | [9] -0.039 | [10] 0.066 | [11] -0.057 | [12] 0.025 | [13] 0.019 | [14] 0.026 | [15] 0.054 | [16] -0.021 | [17] 0.045 | [18] 0.001 | [19] 0.069 | [20] 0.011

COA1 (UniProt Q9GZY4)
inactive: [1] 0.04 | [2] 0.002 | [3] 0.085 | [4] -0.035 | [5] 0.139 | [6] 0.063 | [7] -0.032 | [8] 0.025 | [9] -0.029 | [10] -0.028 | [11] -0.136 | [12] -0.036 | [13] -0.015 | [14] 0.033 | [15] -0.018 | [16] -0.01 | [17] 0.013 | [18] -0.004 | [19] 0.024 | [20] 0.009

CHST12 (UniProt Q9NRB3)
inactive: [1] -0.19 | [2] -0.02 | [3] 0.029 | [4] 0.007 | [5] 0.078 | [6] 0.133 | [7] -0.037 | [8] -0.096 | [9] 0.048 | [10] -0.167 | [11] -0.261 | [12] -0.059 | [15] -0.017 | [17] -0.13 | [18] 0.107

CINP isoform 3 (UniProt Q9BW66)
inactive: [1] -0.011 | [2] -0.002 | [3] -0.054 | [4] -0.051 | [5] 0.066 | [6] 0.033 | [7] -0.005 | [8] -0.043 | [9] 0.006 | [10] -0.058 | [11] -0.036 | [12] -0.058 | [13] -0.017 | [14] -0.129 | [15] 0.061 | [16] 0.01 | [17] -0.018 | [18] 0.044 | [19] -0.002 | [20] -0.034

CKMT2 (UniProt P17540)
inactive: [1] 0.331 | [2] 0.095 | [3] -0.019 | [4] 0.039 | [5] -0.051 | [6] 0.082 | [7] 0.055 | [8] 0.142 | [9] -0.005 | [10] -0.054 | [11] -0.288 | [12] -0.1 | [13] -0.026 | [14] 0.046 | [15] 0.014 | [16] -0.058 | [17] -0.013 | [18] -0.049 | [19] -0.148 | [20] 0.047
